Data: the supplement of paper PMC10338343
± gives the standard deviation. The list shows a part of the results, in another mix than the full data. Many of these values have a large error.

System: MIWI (PIWIL1) piRISC loaded with Kctd7 piRNA (30 nt)
Assay: pre-steady-state target cleavage rate (min^-1); MIWI and MILI are mouse PIWI proteins and EfPiwi is from a freshwater sponge; tags in brackets are library labels; higher = faster piRNA-guided slicing of the target
Conditions: guide: Kctd7 piRNA 5'p-UGUUAAUCUCUCAGAGAAGGUGACAGUGAU; auxiliary factor: 500 nM mouse GTSF1
How it was run: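 Cleave-'n-Seq measured uncleaved targets by sequencing after a transcribed, DNA-blocked target RNA library […] was mixed with 1 nM active affinity-purified piRISC holding one synthetic guide, with or without 500 nM GTSF1 partner protein, at 33 °C in HEPES–potassium acetate buffer for 0–8 or 0–960 min. Counts were normalised to depth and to weakly complementary targets, three trials were pooled, and k3 was capped at 0.0001 min^-1. A burst-and-steady-state fit gave the pre-steady-state cleavage rate.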
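Also: 1 nM active piRISC with 0.1 nM target library at 33 °C single turnover.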

| Sequence | pre-steady-state target cleavage rate |
| --- | --- |
| UAGUGACAGUCCUUCACAGAGAGAUUAACA | 0.00116 ± 0.0088 |
| AUCACUGUCACUCUUCUCUGAGAGAUUAACA | 0.53 ± 0.035 |
| UAGUGACAGUGCUUCUCUGAGAGAUAAUCA | 0.00028 ± 0.0069 |
| UAGUGACAGUCCUACUCUGAGAGAUUUACA | 0.00152 ± 0.005 |
| UAGUGACAGUGCUUCUCUCGAGAGAUUAACA | 0.00103 ± 0.0074 |
| AUCACUGUCGCCUUCUCUGAGAGAUUAACA | 0.819 ± 0.053 |
| UAGUGACAGUGGAACUCUGACUCAUUAACA | 0.000245 ± 0.021 |
| UUCACUGUCACCUUCUCUGACUGAUUAUGA | 0.0019 ± 0.0046 |
| UAGUGAGUCACCUUCUCUGACAGAUAUUGA | 0.00268 ± 0.0031 |
| UAGUGACAGACCUUCUCUGAGAAUUAACA | 0.000838 ± 0.013 |
| UAGUGACAGUGGAACUCUGAGAGAUUAACA [g2:g16:cont:t1A] | 0.000175 ± 0.022 |
| UAGUGACAGUGCUUCUCUGGAGAUUAACA | 0.000722 ± 0.0069 |
| UAGUGACAGUGGUAUCUCUGAGAGAUUAACA | 0.000139 ± 0.025 |
| UUCACUGUCACCUUCUCUGUGAGAUUAUCA | 0.106 ± 0.025 |
| UAGACUGUCGACCUUCUCUGAGAGAUUAACA | 0.121 ± 0.013 |
| UAGUGACAGACCUUCUCACUGAGAUUUUGA | 0.000257 ± 0.053 |
| UAGUGACACUGGUUCUCUGAGAGAUUAUGA | 0.000599 ± 0.0086 |
| UAGUGACAGUGGAACUCUGAGCGAUUAACA | 0.0052 ± 0.007 |
| UAGUGUGUCUGCUUCUCUGAGAGAUAUUGA | 0.000495 ± 0.0064 |
| UACACUGUCACGAUCUCUGAGAGAUUUUGA | 0.00219 ± 0.0063 |
| UAGUGACAGUGCUUCUCUCAGAGAUUAUCA | 0.000742 ± 0.011 |
| UAGUGACAGUGGAUCUCUGAGAGAUUAACCA | 0.000249 ± 0.014 |
| UAGUGACUCACCUUCUCUGACAGAUAUUGA | 0.000488 ± 0.015 |
| UAGUGACACACCUUCUCUGAGACAUUAAGA | 0.00138 ± 0.0055 |

| Sequence | pre-steady-state target cleavage rate |
| --- | --- |
| UAGACUGUCACCUUGAGUGAGAGAUUUUGA | 0.000156 ± 0.042 |
| UAGUGACACACCUUCUCAUGAGAGAUUAACA | 0.00089 ± 0.013 |
| UAGUGACAGACCUUCUUGAGAGAUUAACA | 0.000669 ± 0.017 |
| UAGUGACAGACCAACUCUGAGAGAUUAUGA | 0.000105 ± 0.027 |
| UAGUGACACACCUUCUCUCUGAGAUAUUGA | 0.000932 ± 0.0089 |
| UAGUGUGUCACCUUCUGAGAGAGAUUUUGA | 0.00289 ± 0.006 |
| UAGUGACAGUGGAAGAGACAGAGUAAAACA | 0.000114 ± 0.05 |
| UAGUGACUCACCUUGAGUGAGAGAUUAACA | 0.000885 ± 0.0089 |
| UAGUGACAGUCCUUCUCUGAGUGAUAAACA | 0.00126 ± 0.0057 |
| UAGUGACAGACCUUCUCAUGAGAGAUUAACA | 0.000949 ± 0.0092 |
| UAGACUGUCACCUUCAGAGAGAGAUUUUGA | 0.00213 ± 0.0054 |
| UAGUGACAGUGCUUCUCUGAGAGACUUAACA | 0.00147 ± 0.0034 |
| ACUCACUGUCACCUUCUCUGAGAGAUUAACA | 0.781 ± 0.054 |
| UAGUGACUCACCUAGUCUGAGAGAUUAUGA | 0.000409 ± 0.02 |
| UUCACUGUCACCUUCUCUGAGUCUAAUUGA [g10:g29:cont:t1A] | 0.00252 ± 0.0034 |
| UAGUGACAGUGGAAGUCUGACUCAUUAACA | 0.000167 ± 0.018 |
| UAGUGACACACCUUCUCUGAGAAUUAACA | 0.00401 ± 0.0044 |
| AUCACUGUCACCUUCUCUGACUCAUAUUGA | 0.00142 ± 0.0051 |
| UAGUGACACAGCUUCUCUGAGAGAUUAUGA | 0.00591 ± 0.0022 |
| UAGUCUGUCACCUUCUCACAGAGAUAUUGA | 0.00214 ± 0.0053 |
| UAGUGACAGUGCUUCACAGAGAGAUUAACA | 0.000763 ± 0.012 |
| UACACUCACACCUUCUCUGAGAGAUAUUGA | 0.0241 ± 0.012 |
| UAGUGACAGACCUUCUCUGGAGAGAUUAACA | 0.000962 ± 0.012 |
| UAGUGACAGUCGUUCUCUGAGAGAUAAACA | 0.00113 ± 0.0084 |

Shown as comma-separated lines: entries from further up.
Sequence,pre-steady-state target cleavage rate
UAGUGACAGACCUUCUUGAGAGAUUAACA,0.000669 ± 0.017
UAGUGACAGACCAACUCUGAGAGAUUAUGA,0.000105 ± 0.027
UAGUGACACACCUUCUCUCUGAGAUAUUGA,0.000932 ± 0.0089
UAGUGUGUCACCUUCUGAGAGAGAUUUUGA,0.00289 ± 0.006
UAGUGACAGUGGAAGAGACAGAGUAAAACA,0.000114 ± 0.05
UAGUGACAGUCCUUCUCUGAGUGAUAAACA,0.00126 ± 0.0057
UAGACUGUCACCUUCAGAGAGAGAUUUUGA,0.00213 ± 0.0054
ACUCACUGUCACCUUCUCUGAGAGAUUAACA,0.781 ± 0.054
UUCACUGUCACCUUCUCUGAGUCUAAUUGA [g10:g29:cont:t1A],0.00252 ± 0.0034
UAGUGACACACCUUCUCUGAGAAUUAACA,0.00401 ± 0.0044
AUCACUGUCACCUUCUCUGACUCAUAUUGA,0.00142 ± 0.0051
UAGUGACAGUGCUUCACAGAGAGAUUAACA,0.000763 ± 0.012
UAGUGACAGACCUUCUCUGGAGAGAUUAACA,0.000962 ± 0.012

Continued:

| Sequence | pre-steady-state target cleavage rate |
| --- | --- |
| UAGUGACAGACCUUCUCUGAGAGUUUAAGA | 0.00291 ± 0.0048 |
| UAGUGUGUCACGAACUCUGAGAGAUUAUGA | 0.000511 ± 0.017 |
| UAGACUGUCACAUUCUCUGAGAGAUUAACA | 0.77 ± 0.051 |
| UAGUGACACACCUUCACAGAGAGAUUAACA | 0.00498 ± 0.0055 |
| UAGUGACUCUGCUUCUCUGAGAGAUUAAGA | 0.00127 ± 0.0041 |
| UAGUGACUCACCUUCUCUGAGCAGAUUAACA | 0.00114 ± 0.0076 |
| AUCACUGUCACCUUGCUCUGAGAGAUUAACA | 1.1 ± 0.18 |
| AUCACUGUCACCUUUCUGAGAGAUUAACA | 0.532 ± 0.025 |
| UAGUGACAGUCCUUCUCUGAGUAGAUUAACA | 0.000394 ± 0.015 |
| UAGUGACAGUGGAAGAGACUCAGAUUAACU [g2:g9:cont:t1U] | 0.000183 ± 0.02 |
| UAGUGACAGUGCUUCUCUGAGAGUUAAACA | 0.000438 ± 0.0089 |
| UAGUGACAGUCCUUCUCUGAAGAUUAACA | 0.000454 ± 0.013 |
| UAGUGACACACCUUCUCUCUGAGAUUAAGA | 0.00258 ± 0.0043 |
| AUCACUGUCACCUUCUCUGACUCAUUUUGA | 0.00216 ± 0.0036 |
| UUCACUGUCAGGUUCUCUGAGAGAUAUUGA | 0.00125 ± 0.0047 |
| UAGUGACACACCUUCUCUGAGUCAUUAUGA | 0.000324 ± 0.021 |
| UAGUGACAGUGGAACUCUGAGAAUUAACA | 0.000122 ± 0.037 |
| UAGUGACUCACCUUCUCUGAGAGAAUAAGA | 0.02 ± 0.0073 |
| UAGUGACAGUGGUUCUCUGAGAGAUUAACA [g2:g18:cont:t1A] | 0.00044 ± 0.0066 |
| UAGUGACUCACCUUCUCUCUGAGAUUAAGA | 0.000923 ± 0.0067 |
| UAGUGACACACCUUCUCUGAGUCAUUUUGA | 0.00057 ± 0.017 |
| UUCACUGUCUGGUUCUCUGAGAGAUAUUGA | 0.000379 ± 0.018 |
| UAGUGACAGUGGAUCUCUGACUCAUUAACA | 0.000199 ± 0.016 |
